# Laboratory results: PubChem BioAssay AID504375 (National Center for Advancing Translational Sciences (NCATS), 2011)
# Chains of the proteins cited; added tags and fusions are not shown.
# UniProt Q01196, whole entry, looked up: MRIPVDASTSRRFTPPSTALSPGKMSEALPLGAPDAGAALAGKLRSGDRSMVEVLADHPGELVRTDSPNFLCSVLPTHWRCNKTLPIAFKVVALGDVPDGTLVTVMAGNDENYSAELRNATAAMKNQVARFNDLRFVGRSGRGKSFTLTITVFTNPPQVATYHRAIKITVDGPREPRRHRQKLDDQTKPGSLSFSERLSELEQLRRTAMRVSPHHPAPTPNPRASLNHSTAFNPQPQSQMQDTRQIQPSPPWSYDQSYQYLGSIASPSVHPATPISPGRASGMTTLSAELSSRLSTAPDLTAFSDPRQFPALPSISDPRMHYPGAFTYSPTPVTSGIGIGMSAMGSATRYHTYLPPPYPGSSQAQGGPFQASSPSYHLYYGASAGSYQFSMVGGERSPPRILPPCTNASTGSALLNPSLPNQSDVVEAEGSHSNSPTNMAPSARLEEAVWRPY
# UniProt Q13951, whole entry, looked up: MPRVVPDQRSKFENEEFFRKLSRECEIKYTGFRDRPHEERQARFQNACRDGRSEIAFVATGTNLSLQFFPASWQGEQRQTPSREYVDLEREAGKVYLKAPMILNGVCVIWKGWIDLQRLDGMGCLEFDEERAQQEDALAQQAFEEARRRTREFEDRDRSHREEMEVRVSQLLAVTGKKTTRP
# About 25 (2%) of roughly 1,600 compounds were called active. Roughly 7% stayed inconclusive and do not appear here. The call rests on the fitted dose curve; in most records, active means well fitted inhibition curve with a large enough effect; inconclusive means small, poorly fitted or top-dose-only effect, or effect the other way; inactive means no such curve, though single readings can be large or run the other way. Some of the results follow.
# Molecular target: Runt-related transcription factor 1 (Homo sapiens) + Core-binding factor subunit beta (Homo sapiens) (UniProt Q01196+Q13951)
# Assay: qHTS Assay for Compounds Blocking the Interaction Between CBF-beta and RUNX1 for the Treatment of Acute Myeloid Leukemia: Hit Validation with Orthogonal Assay
# Conditions: CBFbeta-RUNX1 binding orthogonal assay, biochemical; series mostly up to 41 µM; activity change, negative = inhibition: at the top concentration
# Source text: NIH Chemical Genomics Center [NCGC]
# NIH Molecular Libraries Probe Production centers Network [MLPCN]
# Assay Submitter (PI): Paul Liu
# Core Binding Factor (CBF) abnormalities are associated with 20-25% of all acute myeloid leukemias (AML), of which 5-10% are further sub classified as acute myelomonocytic leukemia with eosinophilia, also known as M4Eo in the FAB classification scheme. This subtype of leukemia is usually associated with chromosome 16 inversion (p13:q22). Chromosome 16 inversion results in formation of the fusion oncogene CBFB-MYH11, which encodes the fusion protein CBF-beta-SMMHC.
# It has been hypothesized that the interference of CBF-beta and RUNX1 binding could have therapeutic implications for patients with CBF mediated leukemias. We developed a CBF-beta and RUNX1 binding assay in AlphaScreenTM format and optimized it for high throughput screening to search for inhibitors. The goal of this project is to screen MLPCN's compound collection (MLSMR) for identifying the inhibitors of the interaction between CBF-beta and RUNX1 proteins as research probes. If these probes work well in the animal models, the ultimate goal of this project is to development a new drug treatment for this disease.
# This assay can not be used to assess how apparent inhibitors interfere with protein binding, and whether inhibitors specifically bind to either protein. Disruption of this protein-protein interaction, through any mechanism, is the intended target activity.
# The present data set was run to confirm the activity of hits from the primary screen using an orthogonal assay technology for measuring protein-protein interaction disruption.
# A TR-FRET (time resolved fluorescence resonance energy transfer) assay was performed using the same assay buffer, protein concentrations and incubation times as described previously in the AlphaScreen assay, except that terbium (Tb+) labeled anti-his-antibody and XL665 linked streptavidin were used to capture the binding signal. The Tb+ labeled anti-his-antibody captures His(6)-CBF and XL665 linked streptavidin binds to biotin-RUNX1. The binding of RUNX1 to CBFbrings Tb+ and XL665 to proximity resulting in a TR-FRET signal. Briefly, in a white 384-well plate, 10 µl/well of mixture of biotin-RUNX1 and His(6)-CBFwere incubated with 10 µl/well buffer (positive control) or 10 µl/well compounds (negative control) for 20 min followed by an addition of 10 µl/well of Tb+ labeled anti-his(6)-antibody and XL665 linked streptavidin. After 90 min of incubation in the dark, the assay plate was measured in the Envision plate reader using TR-FRET detection mode. For the 1536-well plate format, 3 µl/well mixture of biotin-RUNX1 and His(6)-CBF (30 nM per protein) was incubated with 23 nl/well compound (dissolved in 100% DMSO) or the equivalent DMSO concentration (positive control) for 30 min followed by the addition of 1 µl/well of 0.44 ng Tb+ labeled anti-his(6)-antibody and 5 nM streptavodin-XL665. After 90 min of incubation, the assay plate was measured in the Envision plate reader.
# The TR-FRET assay for detecting interaction between HIV-I Tat and […] was similarly performed with the recombinant full-length HIV-I Tat CLADE B and HIV-I Tat Biotin conjugated proteins supplied by Diatheva (Fano, Italy). Briefly, the His-CBF and Biotin-RUNX1 complex at a working concentration of 83.3 nM per protein were pre-incubated in assay buffer for 10 minutes on ice. Then HIV-I Tat or unlabeled CBF were added to reach final concentrations (Supplementary Figure 4b) and incubated for 5 minutes. Finally anti-His antibody and streptavidin-XL665 at a final concentration of 2.2 ng and 5 nM, respectively, were added to the plate, which was incubated for 1 hr prior to reading on the PerkinElmer Envision plate reader.
# Keywords: MLSMR, MLPCN, NIH Roadmap, qHTS, NCGC, Core binding factor, CBF, CBF-beta, Acute myeloid leukemia
# On the % scale 0 is the no-effect control and ±100 the full control effect; potency means the concentration at half of the fitted maximal effect.
SMILES,"activity change, negative = inhibition",Potency
O=c1c2ccccc2c(-c2ccccc2)nn1-c1ccccc1,inactive: -4.88%,–
O=C(CN1CCCC1)Nc1c(C(=O)C2CC2)oc2ccccc12,inactive: 4.04%,–
CCc1c(C)nc2c(-c3ccccc3)c(C)nn2c1Nc1ccc(NC(C)=O)cc1,inactive: 12%,–
COc1ccc(-n2c(=S)[nH]c3[nH]ncc3c2=O)cc1,inactive: 9.68%,–
CC1=NN(c2nc3ccccc3s2)C(O)(C(F)(F)F)C1 (stereo not given),inactive: 8.33%,–
Cc1cc(C(=O)N/N=C/c2c(C)nn(-c3ccccc3)c2C)n[nH]1,inactive: -1.38%,–
N#Cc1ccc(S(=O)(=O)N2CCCN(c3ccc(C(F)(F)F)cn3)CC2)cc1,inactive: -4.62%,–
CCOc1cccc2cc(C(N)=O)c(=N)oc12,inactive: 28.4%,–
O=C(CSc1n[nH]c(=O)[nH]c1=O)NCC1CCCCC1,inactive: -0.514%,–
O=S(=O)(c1cccc(F)c1)N1CCCN(c2ccc(C(F)(F)F)cn2)CC1,inactive: -7.51%,–
Cc1nc(N2CCOCC2)nc(Oc2ccccc2F)c1[N+](=O)[O-],inactive: -2.96%,–
O=c1[nH]nc(N2CCOCC2)c(=O)[nH]1,inactive: 9.08%,–
CCN(CC)C(=O)CSc1nnc2nnc3cc(OC)ccc3n12,inactive: 85.2%,–
CCc1cccc(C)c1NC(=O)N(C)C1CCCCC1,inactive: -7.29%,–
Cc1cccc(C(=O)N/C(=C\c2ccc(C)o2)C(=O)O)c1,inactive: 5.51%,–
O=C(Nc1ccc(Cl)cc1)Nc1ccc(C(=O)N2CCOCC2)cc1,inactive: 3.72%,–
Cc1nn(Cc2ccccc2)c(C)c1/C=N/NC(=O)c1ccncc1,inactive: 2.97%,–
COc1ccccc1/C=C/C=N/n1c(-c2ccccn2)n[nH]c1=S,inactive: 11.2%,–
O=S(=O)(Nc1nc(SCc2ccc(Cl)cc2)n[nH]1)c1ccccc1,inactive: -14.4%,–
CC(=O)Nc1cccc(S(N)(=O)=O)c1C,inactive: 1.17%,–
CN1C(=O)C(CC(=O)NCCc2ccccc2)N(NC(=O)c2ccc(Cl)cc2)C1=S (stereo not given),inactive: -11.6%,–
CCOC(=O)c1cnn(-c2ccc(NS(=O)(=O)c3ccc(Cl)cc3)cc2)c1C(F)(F)F,inactive: 0.0612%,–
CCN(CC)c1ccc(/C=N/N2CCN(Cc3ccc(Cl)cc3)CC2)c(O)c1,inactive: 4.25%,–
Fc1ccc([C@H]2CCNCC2COc2ccc3c(c2)OCO3)cc1 (stereo not given in full),inactive: -5.24% [at 82.4 µM],–
Cc1nc(C)c(-c2ccnc(/N=C/NO)n2)s1,inactive: 3.72%,–

SMILES,"activity change, negative = inhibition",Potency
Cn1cnc(S(=O)(=O)Nc2ccc(OC(F)F)cc2)c1,inactive: 8.49%,–
Cc1oc(S(=O)(=O)N2CCCC2)cc1C(=O)Nc1ccccc1,inactive: -1.84%,–
Cc1ccc(-c2nn[nH]n2)cc1Cl,inactive: 4.17%,–
CCO/C=C1\SC(=S)N(c2ccc(Cl)cc2)C1=O,inactive: 0.783%,–
CC(C)(C)OC(=O)N1Cc2cc3ccccc3nc2C1CO (stereo not given),inactive: 9.96%,–
CN(C)c1ccc(N2C(=O)CC(c3ccccc3)CC2=O)cc1,inactive: 17.5%,–
Cc1cc(C)n2nc(N)c(N=Nc3ccccc3)c2n1,inactive: 16.4%,–
CCCc1c(C(=O)O)cnn1-c1ccc(Cl)cc1,inactive: 3.28%,–
Cc1nn(-c2ccccc2)c(NC(=O)c2cccs2)c(-c2ccccc2Cl)c1=O,inactive: 8.62%,–
CC(=O)Oc1cc2c3c(c1)/C(=C1/SC(=S)NC1=O)C(=O)N3C(C)(C)C=C2C,inactive: 14.8%,–
CC(C)NNC(=O)c1ccncc1,inactive: 28.1%,–
Cc1nc(Nc2ccc(F)cc2)nc(Nc2ccc(F)cc2)c1[N+](=O)[O-],inactive: -11.5%,–
COc1ccc(CCNC(=S)NCCc2ccc(OC)c(OC)c2)cc1OC,inactive: -0.967%,–
C=CCn1c(SCc2ccc(F)cc2)nnc1-c1sc2nc(C)cc(C)c2c1N,inactive: 6.09%,–
CCOC(=O)c1cn[nH]c1NC(=S)Nc1ccc(Cl)cc1,inactive: 13.8%,–
COc1ccc2c(C)cc(C)nc2n1,inactive: 11.8%,–
Cc1nn2c(N3CCN(CCO)CC3)c3c(nc2c1-c1ccccc1)CCCC3,inactive: 7.13%,–
COc1ccc2[nH]c(=O)c(CN(C(=O)c3cccnc3)c3ccc(C)cc3C)cc2c1,inactive: -5.17%,–
Cc1cccc(NC(=S)N(CCN(C)C)C(C)c2ccccn2)c1 (stereo not given),inactive: 3.34% [at 22.1 µM],–
CC(C)(C)c1cc(C(=O)NN)n(Cc2ccc(Cl)cc2Cl)n1,inactive: 1.84%,–
Cn1nc2sc3ccccc3n2c(=O)c1=O,inactive: -8.73%,–
Cc1ccnn1CC(=O)N/N=C/c1c[nH]c2ccccc12,inactive: 21.8%,–
COc1ccccc1C(=O)N1CCC(N2CCN(c3ccccc3)CC2)CC1,inactive: -6.19%,–
C=CCNC(=S)NCC,inactive: -15.6%,–
COc1cccc2c1NC(C(=O)O)C1CC=CC21 (stereo not given),–,active: 7.94 µM

SMILES,"activity change, negative = inhibition",Potency
O=C(c1ccccc1)c1ccc(Sc2ccc([N+](=O)[O-])cc2)cc1,inactive: -2.88%,–
CCCCNC(=O)Nc1nnc(C(C)(C)C)s1,inactive: -12%,–
C[C@H](N)C(=O)OCc1ccc([N+](=O)[O-])cc1,inactive: 12.9%,–
COc1ccc(C2Sc3ccccc3N(CCN(C)C)C(=O)C2OC(C)=O)cc1 (stereo not given),inactive: -5.56%,–
Cc1ccc(-n2c(-c3ccc(Cl)cc3)c[n+]3c2CCC3)cc1,inactive: 6.19%,–
O=C(O)/C=C/C(=O)Nc1ccc(Cl)cc1C(=O)c1ccccc1,inactive: 5.96%,–
COc1ccc(NC(=O)Oc2cc(C)ccc2C(C)C)cc1,inactive: 0.526%,–
CC1(C)CC(=O)c2cnc(N3CCc4ccccc43)nc2C1,inactive: -1.31%,–
Cc1cc(C)nc(S/C=C/C(=O)c2ccccc2)n1,inactive: -1.69%,–
O=C(c1ccc(Cl)cc1Cl)N1CCSCC1,inactive: 17.6%,–
N[C@H](Cc1ccc(O)c(O)c1)C(=O)O,–,active: 7.08 µM
Cc1onc(-c2c(F)cccc2Cl)c1C(=O)c1ccc(F)cc1,inactive: 13.7%,–
CCOC(=O)c1cn2nc(Oc3ccc(NC(C)=O)cc3)ccc2n1,inactive: 4.2%,–
CC(C)(C)OC(=O)NCCCCCC(=O)N/N=C/c1coc2ccccc2c1=O,inactive: 11.4%,–
S=c1[nH]nc([C@@H]2C[C@H]2c2ccccc2)n1-c1ccccc1Cl,inactive: -7.38%,–
Cc1cc(-n2cnc(-c3cn[nH]c3C)n2)no1,inactive: 3.36%,–
CC(=O)Nc1ccc(CC#N)cc1,inactive: 10.7%,–
CC1=C(C)Cc2c(OC(=O)c3ccccc3)ccc(OC(=O)c3ccccc3)c2C1,inactive: 4.4%,–
Cn1nc(-c2ccccc2)cc1NC(=O)CCCC(=O)O,inactive: -1.31%,–
COc1ccc([N+](=O)[O-])c(S(=O)(=O)c2ccc(Cl)cc2)n1,inactive: 32.4%,–
O=C(O)c1ccccc1N/N=C/c1cc(Br)cc(Br)c1O,inactive: -2.4%,–
CC1CC(=O)Nc2ccccc2N1S(=O)(=O)c1ccc(Cl)cc1 (stereo not given),inactive: -2.07%,–
CCOc1ccc(NC(=O)Nc2cc(C(C)C)c(O)cc2C)cc1,inactive: -4.8%,–
CC(C)(C)c1ccc(Oc2ccc(NC(=O)c3cccs3)cn2)cc1,inactive: -4.4%,–
CCNC(=O)COC(=O)c1cc(S(=O)(=O)N2CCCCC2)ccc1C,inactive: -1.11%,–

# 5 successive compounds from above, quoted:
SMILES,"activity change, negative = inhibition",Potency
CCCCNC(=O)Nc1nnc(C(C)(C)C)s1,inactive: -12%,–
C[C@H](N)C(=O)OCc1ccc([N+](=O)[O-])cc1,inactive: 12.9%,–
COc1ccc(C2Sc3ccccc3N(CCN(C)C)C(=O)C2OC(C)=O)cc1 (stereo not given),inactive: -5.56%,–
Cc1ccc(-n2c(-c3ccc(Cl)cc3)c[n+]3c2CCC3)cc1,inactive: 6.19%,–
O=C(O)/C=C/C(=O)Nc1ccc(Cl)cc1C(=O)c1ccccc1,inactive: 5.96%,–
